Some of these results come from one statement about several compounds together. At least one compound was matched to its structure with a doubt left.
tested on: two-spotted spider mites; assay: Insecticidal test on two-spotted spider mites (Test Example 1); assay type: in vivo, Tetranychus urticae; details: wettable powder diluted to 500 ppm active ingredient; soybean seedlings inoculated with adult mites immersed; survivors counted after 13 days; Equation 1
Excerpt: Test Example 1 Insecticidal Test on Two-Spotted Spider Mites

Compound	preventive value
CCCSc1cc(-n2ccc(C(F)(F)F)n2)ccc1C=O [Compound V-159, 2-propylthio-4-(3-trifluoromethylpyrazolyl)benzaldehyde]	≥ 90
CC(C)Sc1cc(-c2ccc(C(F)(F)F)cn2)ccc1C#N [I I-1]	≥ 90
Cc1cc(F)c(-c2ccc(C(F)(F)F)cn2)cc1SC(C)C [I I-39]	≥ 90
Cc1cc(F)c(-c2ccc(C(F)(F)F)cn2)cc1[S+]([O-])C(C)C (centres unmarked) [I I-40]	≥ 90
Cc1cc(F)c(-c2ccc(C(F)(F)F)cn2)cc1SCC(F)(F)F [I I-43]	≥ 90
Cc1cc(F)c(-c2ccc(C(F)(F)F)cn2)cc1[S+]([O-])CC(F)(F)F (centres unmarked) [I I-44]	≥ 90
Cc1cc(F)c(-c2ccc(C(F)(F)F)nc2)cc1SC(C)C [I I-57]	≥ 90
Cc1cc(F)c(-c2ccc(C(F)(F)F)nc2)cc1[S+]([O-])C(C)C (centres unmarked) [I I-58]	≥ 90
Cc1cc(F)c(-c2ccc(C(F)(F)F)nc2)cc1SCC(F)(F)F [I I-61]	≥ 90
Cc1cc(F)c(-c2ccc(C(F)(F)F)nc2)cc1[S+]([O-])CC(F)(F)F (centres unmarked) [I I-62]	≥ 90
Cc1cc(F)c(-c2nccc(C(F)(F)F)n2)cc1SCC(F)(F)F [I I-77]	≥ 90
Cc1cc(F)c(-c2nccc(C(F)(F)F)n2)cc1[S+]([O-])CC(F)(F)F (centres unmarked) [I I-78]	≥ 90
Cc1cc(F)c(-c2cc(C(F)(F)F)ncn2)cc1SC(C)C [I I-81]	≥ 90
Cc1cc(F)c(-c2cc(C(F)(F)F)ncn2)cc1[S+]([O-])C(C)C (centres unmarked) [I I-82]	≥ 90
Cc1cc(F)c(-c2cc(C(F)(F)F)ncn2)cc1SCC(F)(F)F [I I-85]	≥ 90
Cc1cc(F)c(-c2cc(C(F)(F)F)ncn2)cc1[S+]([O-])CC(F)(F)F (centres unmarked) [I I-86]	≥ 90
Cc1cc(F)c(-c2ccnc(C(F)(F)F)n2)cc1SC(C)C [I I-89]	≥ 90
Cc1cc(F)c(-c2ccnc(C(F)(F)F)n2)cc1[S+]([O-])CC(F)(F)F (centres unmarked) [I I-94]	≥ 90
Cc1cc(F)c(-c2ccnc(C(F)(F)F)n2)cc1SCC1CC1 [I I-95]	≥ 90
N#Cc1ccc(-c2ccc(Cl)s2)cc1[S+]([O-])CC1CC1 (centres unmarked) [I V-6]	≥ 90
